Two substances from paper PMC6691575 can be followed below.

Amino acid sequences for entries named in this document (tags omitted).
UniProt P51532: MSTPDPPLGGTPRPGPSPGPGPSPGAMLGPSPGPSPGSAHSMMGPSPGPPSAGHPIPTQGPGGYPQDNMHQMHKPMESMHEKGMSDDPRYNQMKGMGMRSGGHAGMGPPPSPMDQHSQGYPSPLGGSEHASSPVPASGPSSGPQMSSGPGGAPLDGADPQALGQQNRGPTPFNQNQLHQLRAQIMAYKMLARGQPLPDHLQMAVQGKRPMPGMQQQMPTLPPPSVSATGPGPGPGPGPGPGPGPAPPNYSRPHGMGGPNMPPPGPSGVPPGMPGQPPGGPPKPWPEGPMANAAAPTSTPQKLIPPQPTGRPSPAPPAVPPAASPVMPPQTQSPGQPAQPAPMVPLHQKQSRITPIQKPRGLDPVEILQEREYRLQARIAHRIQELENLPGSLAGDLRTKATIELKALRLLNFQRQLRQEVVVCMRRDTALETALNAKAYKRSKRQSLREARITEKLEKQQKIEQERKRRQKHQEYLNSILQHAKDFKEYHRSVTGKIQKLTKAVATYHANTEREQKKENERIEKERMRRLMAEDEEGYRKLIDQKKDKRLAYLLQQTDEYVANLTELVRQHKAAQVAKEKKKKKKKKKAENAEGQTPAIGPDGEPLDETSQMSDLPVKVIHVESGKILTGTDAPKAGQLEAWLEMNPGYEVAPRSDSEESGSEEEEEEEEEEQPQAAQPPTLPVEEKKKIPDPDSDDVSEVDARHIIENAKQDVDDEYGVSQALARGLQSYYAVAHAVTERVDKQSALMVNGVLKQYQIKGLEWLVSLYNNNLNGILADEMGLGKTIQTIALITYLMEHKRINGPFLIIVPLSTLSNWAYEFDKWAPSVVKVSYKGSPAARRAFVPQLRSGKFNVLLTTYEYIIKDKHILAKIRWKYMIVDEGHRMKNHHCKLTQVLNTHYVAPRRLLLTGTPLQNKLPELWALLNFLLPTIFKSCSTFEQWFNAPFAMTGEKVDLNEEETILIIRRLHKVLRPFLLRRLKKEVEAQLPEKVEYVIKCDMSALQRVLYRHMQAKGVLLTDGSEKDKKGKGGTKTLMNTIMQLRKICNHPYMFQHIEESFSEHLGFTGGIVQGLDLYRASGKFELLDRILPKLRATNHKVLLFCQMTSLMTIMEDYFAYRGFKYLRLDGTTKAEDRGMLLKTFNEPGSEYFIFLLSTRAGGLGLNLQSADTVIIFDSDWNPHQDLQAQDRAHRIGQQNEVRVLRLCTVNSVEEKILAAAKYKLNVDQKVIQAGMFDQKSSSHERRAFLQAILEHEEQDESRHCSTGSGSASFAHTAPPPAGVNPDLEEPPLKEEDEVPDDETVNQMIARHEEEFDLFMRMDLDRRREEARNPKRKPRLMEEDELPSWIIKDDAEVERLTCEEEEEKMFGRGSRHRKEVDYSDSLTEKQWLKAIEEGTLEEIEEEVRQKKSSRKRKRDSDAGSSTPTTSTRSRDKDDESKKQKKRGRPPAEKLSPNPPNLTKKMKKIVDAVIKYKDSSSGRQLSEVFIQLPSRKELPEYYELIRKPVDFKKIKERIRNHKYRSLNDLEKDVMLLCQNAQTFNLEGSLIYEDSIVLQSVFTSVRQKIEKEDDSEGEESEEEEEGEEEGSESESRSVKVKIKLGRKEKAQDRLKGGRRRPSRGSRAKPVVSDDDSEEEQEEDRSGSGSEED
UniProt P09429: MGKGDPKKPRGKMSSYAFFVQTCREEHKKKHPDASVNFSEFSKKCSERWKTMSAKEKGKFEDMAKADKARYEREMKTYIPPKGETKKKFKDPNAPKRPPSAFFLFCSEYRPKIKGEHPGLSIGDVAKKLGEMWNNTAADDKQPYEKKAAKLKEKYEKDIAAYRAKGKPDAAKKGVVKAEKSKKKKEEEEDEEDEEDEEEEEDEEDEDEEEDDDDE

The target in test [1] is Brahma-related gene 1 (BRG1, also known as SMARCA4) (human (endogenous in PC-3 and LNCaP)) (UniProt P51532). Nature of the test: co-IP; PC-3 and LNCaP cell lysates, pre-cleared with A/G beads, 5 ug control IgG, HMGB1 or BRG1 antibody overnight at 4 °C, A/G beads 6 h, washed with ice-cold PBS with 0.2% NP-40, immunoblot with anti-HMGB1 and anti-BRG1; endogenous proteins, both orientations.

The target of test [2] is high-mobility group box 1 (HMGB1) (human (endogenous in PC-3 and LNCaP)) (UniProt P09429). Described as above.

These are yes or no findings as the source states them, for the method shown. Binding seen in cells or lysates may run through a third protein. Some binding calls cover weakened binding; strength is not graded here.

In the case of “high-mobility group box 1 (HMGB1) (from UniProt P09429 1-215)”, the binding result in test [1] is “binds”. As to “Brahma-related gene 1 (BRG1, also known as SMARCA4) (from UniProt P51532 1-1647)”, the binding entry in test [2] is “binds”.
